# Laboratory results: PubChem BioAssay AID504764 (Drosophila RNAi Screening Center, 2011)
# Test: 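Genes whose knock-down alters Notch-dependent transcription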 (primary screen)
# Cells: Drosophila Kc167 cells
# Reagent: long dsRNA against Drosophila genes
# Duration: about 5 days (4 days dsRNA, then 24 h after transfection)
# Challenge: transfection of constitutively active membrane-tethered Notch lacking the extracellular domain, read 24 h later
# Read-out: 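Firefly luciferase from an E(spl)m3 reporter with active Notch, plus control-promoter and uninduced reporter wells for normalisation; unnormalised counts, duplicate wells a and b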
# Scale: induced reporter light, run 1, well a and induced reporter light, run 1, well b: higher = more light from the Notch target reporter with active Notch; control promoter light, run 1, well a and control promoter light, run 1, well b: higher = more light from the viral control promoter (cell number, transfection, viability); uninduced reporter light, run 1, well a: higher = more light from the Notch target reporter without active Notch
# Rule for the call: 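Wells with low control signal or poorly matching duplicates excluded; duplicates averaged; per source plate, z beyond ±2 for induced/control log2 ratio or beyond ±1.8 for induced/uninduced marks a hit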
# Meaning of the calls: active = modifier hit (raised or lowered Notch signal); inactive = not a hit
# The deposit covers about 22,000 reagents; below is an unselected part of those with a known target gene and a result. Over the whole deposit, 403 (1.9%) got an active call. 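Unnormalised raw counts per well; ratio z-scores behind the hit calls and whether each hit raises or lowers signal are not deposited.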 Reagents against one gene are numbered here. Reagent sequences are not shown. Not stated in the record: the amount of reagent.
gene knocked down,dsRNA no.,"induced reporter light, run 1, well a","induced reporter light, run 1, well b","control promoter light, run 1, well a","control promoter light, run 1, well b","uninduced reporter light, run 1, well a",Outcome
GCS2alpha (GeneID 49953),1,1.07e5,96355,91275,1.27e5,11242,inactive
Mical (GeneID 41225),1,96675,1.05e5,81735,97775,5380,inactive
Mical (GeneID 41225),2,1.19e5,87365,1.29e5,1.10e5,8180,inactive
Mical (GeneID 41225),3,1.04e5,95915,77390,70830,5710,inactive
Mical (GeneID 41225),4,71025,88095,73905,47265,7545,inactive
jeb (GeneID 36295),1,85380,93130,1.52e5,1.43e5,10745,inactive
jeb (GeneID 36295),2,79000,93030,1.46e5,1.55e5,11435,active
Cyp303a1 (GeneID 49165),1,1.22e5,1.20e5,1.32e5,1.50e5,9060,inactive
CG12065 (GeneID 31798),1,2.10e5,1.77e5,2.08e5,2.00e5,12860,inactive
CG12065 (GeneID 31798),2,1.95e5,1.58e5,3.42e5,3.32e5,10825,inactive

Hits, of those listed so far:
gene knocked down,dsRNA no.,"induced reporter light, run 1, well a","induced reporter light, run 1, well b","control promoter light, run 1, well a","control promoter light, run 1, well b","uninduced reporter light, run 1, well a",Outcome
jeb (GeneID 36295),2,79000,93030,1.46e5,1.55e5,11435,active

The listing continues.
gene knocked down,dsRNA no.,"induced reporter light, run 1, well a","induced reporter light, run 1, well b","control promoter light, run 1, well a","control promoter light, run 1, well b","uninduced reporter light, run 1, well a",Outcome
CG11634 (GeneID 35434),1,43630,45375,44800,33860,3695,inactive
LManIV (GeneID 34204),1,1.10e5,1.19e5,95715,1.02e5,20670,inactive
Rpn13R (GeneID 31433),1,1.27e5,1.22e5,2.17e5,2.47e5,10970,inactive
Orc4 (GeneID 37970),1,1.70e5,1.55e5,1.94e5,1.88e5,13160,inactive
CG31223 (GeneID 326127),1,22745,24732,24975,24275,1900,inactive
Muc4B (GeneID 31368),1,1.45e5,1.17e5,3.18e5,2.47e5,9445,inactive
Muc4B (GeneID 31368),2,1.31e5,1.60e5,2.26e5,1.93e5,10960,inactive
Nxt1 (GeneID 37769),1,2.07e5,1.68e5,1.51e5,1.43e5,14215,inactive
Ror (GeneID 34367),1,1.31e5,1.62e5,84590,98365,18160,inactive
natalisin (GeneID 5740700),1,45175,48770,31565,34750,8490,inactive
natalisin (GeneID 5740700),2,2.77e5,3.04e5,2.99e5,3.30e5,27920,inactive
